Results from the supplement of paper PMC10849652.
Some of the results follow.

Protein sequences, listed by entry. Tags and fused reporters are not part of them. Lines headed by an entry give the natural chain unless they say otherwise; changes in a name come on top.
UniProt P62314, whole entry, looked up: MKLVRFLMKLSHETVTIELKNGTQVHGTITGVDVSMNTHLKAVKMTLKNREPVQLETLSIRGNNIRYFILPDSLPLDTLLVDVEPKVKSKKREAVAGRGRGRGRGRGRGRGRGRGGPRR
UniProt Q9Y5X3: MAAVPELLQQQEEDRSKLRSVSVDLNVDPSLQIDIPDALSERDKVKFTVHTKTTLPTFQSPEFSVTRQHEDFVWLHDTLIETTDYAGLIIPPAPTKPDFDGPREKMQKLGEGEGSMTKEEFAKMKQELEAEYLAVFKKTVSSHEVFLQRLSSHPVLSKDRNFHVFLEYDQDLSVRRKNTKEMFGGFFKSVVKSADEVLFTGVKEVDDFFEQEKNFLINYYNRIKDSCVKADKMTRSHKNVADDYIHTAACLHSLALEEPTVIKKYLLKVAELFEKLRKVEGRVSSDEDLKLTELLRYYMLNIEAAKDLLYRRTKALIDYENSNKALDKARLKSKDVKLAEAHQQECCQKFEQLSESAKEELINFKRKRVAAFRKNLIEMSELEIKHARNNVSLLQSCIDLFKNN
UniProt O60264, whole entry, looked up: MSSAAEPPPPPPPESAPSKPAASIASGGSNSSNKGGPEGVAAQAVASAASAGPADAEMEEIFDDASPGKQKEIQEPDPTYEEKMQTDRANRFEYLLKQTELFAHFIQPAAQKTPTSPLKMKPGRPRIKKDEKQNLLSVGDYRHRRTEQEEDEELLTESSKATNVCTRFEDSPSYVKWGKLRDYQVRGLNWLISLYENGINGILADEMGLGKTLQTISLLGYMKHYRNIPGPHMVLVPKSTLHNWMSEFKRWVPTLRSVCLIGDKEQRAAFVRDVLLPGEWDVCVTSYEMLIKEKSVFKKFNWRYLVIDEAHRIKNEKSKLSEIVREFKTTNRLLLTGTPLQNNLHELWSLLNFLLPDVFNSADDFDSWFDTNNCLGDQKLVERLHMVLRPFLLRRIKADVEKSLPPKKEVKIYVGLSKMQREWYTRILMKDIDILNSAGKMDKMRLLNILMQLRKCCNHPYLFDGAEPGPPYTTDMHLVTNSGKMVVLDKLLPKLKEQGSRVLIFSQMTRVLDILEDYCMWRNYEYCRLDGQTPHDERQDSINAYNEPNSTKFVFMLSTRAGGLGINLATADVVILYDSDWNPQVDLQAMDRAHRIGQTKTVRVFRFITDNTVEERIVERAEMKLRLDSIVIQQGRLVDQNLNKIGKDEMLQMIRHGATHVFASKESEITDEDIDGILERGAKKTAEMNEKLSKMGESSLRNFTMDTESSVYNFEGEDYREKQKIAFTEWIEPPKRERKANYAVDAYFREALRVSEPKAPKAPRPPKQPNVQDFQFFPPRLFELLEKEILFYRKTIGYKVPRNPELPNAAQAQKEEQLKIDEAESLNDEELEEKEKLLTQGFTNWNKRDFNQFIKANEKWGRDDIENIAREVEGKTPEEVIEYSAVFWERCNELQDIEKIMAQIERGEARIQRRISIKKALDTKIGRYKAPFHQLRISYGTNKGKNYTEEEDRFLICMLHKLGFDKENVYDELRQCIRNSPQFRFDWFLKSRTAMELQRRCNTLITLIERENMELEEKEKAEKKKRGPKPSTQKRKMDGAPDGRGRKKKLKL
UniProt Q8TEV9: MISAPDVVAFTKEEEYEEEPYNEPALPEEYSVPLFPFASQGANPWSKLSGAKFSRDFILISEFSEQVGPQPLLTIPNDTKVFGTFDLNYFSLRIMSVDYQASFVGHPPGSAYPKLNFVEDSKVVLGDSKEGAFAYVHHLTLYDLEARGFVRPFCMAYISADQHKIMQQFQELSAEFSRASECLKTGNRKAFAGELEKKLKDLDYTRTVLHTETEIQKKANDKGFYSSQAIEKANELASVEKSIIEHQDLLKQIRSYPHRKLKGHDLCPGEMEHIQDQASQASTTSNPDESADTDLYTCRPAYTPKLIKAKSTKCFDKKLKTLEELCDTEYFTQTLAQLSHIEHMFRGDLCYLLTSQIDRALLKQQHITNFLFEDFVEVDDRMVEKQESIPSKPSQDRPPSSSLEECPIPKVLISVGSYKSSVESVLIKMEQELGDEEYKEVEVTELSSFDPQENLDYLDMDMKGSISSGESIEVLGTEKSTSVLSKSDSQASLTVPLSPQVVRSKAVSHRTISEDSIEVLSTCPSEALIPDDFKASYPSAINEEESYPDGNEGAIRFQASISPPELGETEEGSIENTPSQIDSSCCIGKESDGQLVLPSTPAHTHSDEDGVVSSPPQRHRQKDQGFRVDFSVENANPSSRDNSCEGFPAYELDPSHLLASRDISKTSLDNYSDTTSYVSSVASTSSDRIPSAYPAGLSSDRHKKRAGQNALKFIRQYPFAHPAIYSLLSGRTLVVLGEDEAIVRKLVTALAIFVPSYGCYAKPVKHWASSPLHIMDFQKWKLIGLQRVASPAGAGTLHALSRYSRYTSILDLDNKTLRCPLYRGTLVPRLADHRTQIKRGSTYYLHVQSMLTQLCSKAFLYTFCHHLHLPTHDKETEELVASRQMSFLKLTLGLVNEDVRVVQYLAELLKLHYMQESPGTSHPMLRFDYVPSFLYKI
UniProt Q9NZC9: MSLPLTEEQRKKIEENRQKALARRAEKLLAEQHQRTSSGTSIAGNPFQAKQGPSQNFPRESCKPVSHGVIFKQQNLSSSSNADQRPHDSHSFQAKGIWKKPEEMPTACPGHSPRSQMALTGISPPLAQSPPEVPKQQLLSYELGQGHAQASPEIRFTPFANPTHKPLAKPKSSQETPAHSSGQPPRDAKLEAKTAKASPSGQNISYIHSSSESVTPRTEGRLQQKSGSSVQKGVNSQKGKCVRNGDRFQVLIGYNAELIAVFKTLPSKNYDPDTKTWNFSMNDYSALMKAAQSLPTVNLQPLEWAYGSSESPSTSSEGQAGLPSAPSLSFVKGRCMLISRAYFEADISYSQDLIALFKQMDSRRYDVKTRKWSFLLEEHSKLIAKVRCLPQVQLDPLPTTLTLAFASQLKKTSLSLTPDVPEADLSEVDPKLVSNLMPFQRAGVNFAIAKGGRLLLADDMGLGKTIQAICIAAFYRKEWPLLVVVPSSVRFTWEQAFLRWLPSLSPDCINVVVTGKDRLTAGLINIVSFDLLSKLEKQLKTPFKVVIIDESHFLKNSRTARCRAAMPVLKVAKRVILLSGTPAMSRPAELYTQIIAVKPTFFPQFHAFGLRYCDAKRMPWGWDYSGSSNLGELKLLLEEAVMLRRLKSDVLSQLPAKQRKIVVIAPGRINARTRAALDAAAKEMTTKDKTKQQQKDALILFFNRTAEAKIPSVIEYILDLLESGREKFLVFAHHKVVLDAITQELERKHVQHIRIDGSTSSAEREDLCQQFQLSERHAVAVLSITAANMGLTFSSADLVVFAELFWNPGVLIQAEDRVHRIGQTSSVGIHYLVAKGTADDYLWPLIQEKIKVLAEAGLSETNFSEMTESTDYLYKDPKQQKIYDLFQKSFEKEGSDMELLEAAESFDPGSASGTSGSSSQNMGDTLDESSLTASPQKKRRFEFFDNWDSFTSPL
UniProt P52788: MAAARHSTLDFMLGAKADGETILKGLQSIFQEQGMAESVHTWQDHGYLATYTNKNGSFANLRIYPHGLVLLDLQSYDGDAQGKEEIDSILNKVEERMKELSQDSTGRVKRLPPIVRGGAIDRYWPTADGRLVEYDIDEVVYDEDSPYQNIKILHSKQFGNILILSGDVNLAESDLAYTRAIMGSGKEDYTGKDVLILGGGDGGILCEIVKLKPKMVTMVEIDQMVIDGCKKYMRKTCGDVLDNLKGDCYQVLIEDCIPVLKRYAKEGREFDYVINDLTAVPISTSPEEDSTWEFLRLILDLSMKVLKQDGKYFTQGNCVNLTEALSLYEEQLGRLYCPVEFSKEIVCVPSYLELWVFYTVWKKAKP
UniProt Q13425: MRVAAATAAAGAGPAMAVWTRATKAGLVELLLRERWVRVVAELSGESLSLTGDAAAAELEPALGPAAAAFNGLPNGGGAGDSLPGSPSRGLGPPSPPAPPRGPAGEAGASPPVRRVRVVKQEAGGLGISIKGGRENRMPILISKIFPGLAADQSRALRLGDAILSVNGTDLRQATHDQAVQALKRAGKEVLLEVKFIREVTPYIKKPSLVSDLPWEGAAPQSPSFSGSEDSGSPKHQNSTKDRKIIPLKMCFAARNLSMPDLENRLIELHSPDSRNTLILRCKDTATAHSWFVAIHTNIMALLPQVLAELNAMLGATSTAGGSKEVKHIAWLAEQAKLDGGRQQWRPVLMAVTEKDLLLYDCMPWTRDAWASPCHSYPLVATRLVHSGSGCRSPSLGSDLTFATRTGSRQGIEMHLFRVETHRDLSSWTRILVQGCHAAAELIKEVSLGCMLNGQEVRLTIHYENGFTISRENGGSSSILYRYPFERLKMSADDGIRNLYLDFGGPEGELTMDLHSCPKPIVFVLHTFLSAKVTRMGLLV
UniProt Q9H4L7: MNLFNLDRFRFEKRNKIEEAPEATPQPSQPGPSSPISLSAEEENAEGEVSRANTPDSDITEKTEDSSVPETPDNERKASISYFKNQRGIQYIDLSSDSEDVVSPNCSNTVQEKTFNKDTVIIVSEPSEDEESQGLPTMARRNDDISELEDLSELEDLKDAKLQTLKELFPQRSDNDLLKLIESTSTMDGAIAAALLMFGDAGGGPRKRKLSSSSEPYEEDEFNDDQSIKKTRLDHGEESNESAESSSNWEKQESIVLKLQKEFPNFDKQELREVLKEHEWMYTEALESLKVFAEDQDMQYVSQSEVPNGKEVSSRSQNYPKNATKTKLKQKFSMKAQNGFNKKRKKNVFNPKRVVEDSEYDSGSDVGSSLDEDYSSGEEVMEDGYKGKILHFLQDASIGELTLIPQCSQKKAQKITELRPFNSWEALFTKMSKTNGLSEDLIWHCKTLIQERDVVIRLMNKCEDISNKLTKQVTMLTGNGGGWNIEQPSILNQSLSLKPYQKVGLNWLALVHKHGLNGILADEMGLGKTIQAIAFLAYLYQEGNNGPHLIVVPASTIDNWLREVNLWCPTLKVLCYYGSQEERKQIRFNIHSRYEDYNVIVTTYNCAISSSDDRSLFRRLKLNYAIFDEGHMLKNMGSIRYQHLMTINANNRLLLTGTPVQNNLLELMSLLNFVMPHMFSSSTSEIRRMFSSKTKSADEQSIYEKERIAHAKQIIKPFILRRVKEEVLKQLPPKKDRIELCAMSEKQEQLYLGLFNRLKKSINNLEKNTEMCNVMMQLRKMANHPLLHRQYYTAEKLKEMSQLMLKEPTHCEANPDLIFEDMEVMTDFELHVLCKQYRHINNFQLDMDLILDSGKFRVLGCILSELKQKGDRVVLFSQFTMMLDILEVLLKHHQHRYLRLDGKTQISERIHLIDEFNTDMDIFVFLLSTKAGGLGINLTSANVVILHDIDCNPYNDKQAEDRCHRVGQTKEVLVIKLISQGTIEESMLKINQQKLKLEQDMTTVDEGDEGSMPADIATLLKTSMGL
UniProt Q13424: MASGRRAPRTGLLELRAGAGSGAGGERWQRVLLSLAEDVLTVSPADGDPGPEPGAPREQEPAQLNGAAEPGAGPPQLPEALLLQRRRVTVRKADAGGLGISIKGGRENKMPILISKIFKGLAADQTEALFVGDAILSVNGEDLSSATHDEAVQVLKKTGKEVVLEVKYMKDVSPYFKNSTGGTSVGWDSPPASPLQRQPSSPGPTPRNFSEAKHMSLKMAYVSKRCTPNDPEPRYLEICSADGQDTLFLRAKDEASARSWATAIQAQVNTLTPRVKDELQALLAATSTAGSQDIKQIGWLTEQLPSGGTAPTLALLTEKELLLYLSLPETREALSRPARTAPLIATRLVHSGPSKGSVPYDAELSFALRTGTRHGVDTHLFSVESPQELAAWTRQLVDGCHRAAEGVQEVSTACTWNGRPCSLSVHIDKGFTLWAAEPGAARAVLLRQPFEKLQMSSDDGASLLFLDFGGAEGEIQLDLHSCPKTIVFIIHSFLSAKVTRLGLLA
UniProt P62308, whole entry, looked up: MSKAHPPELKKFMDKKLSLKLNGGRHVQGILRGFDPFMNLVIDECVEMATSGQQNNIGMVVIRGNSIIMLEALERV
UniProt Q9Y5X2: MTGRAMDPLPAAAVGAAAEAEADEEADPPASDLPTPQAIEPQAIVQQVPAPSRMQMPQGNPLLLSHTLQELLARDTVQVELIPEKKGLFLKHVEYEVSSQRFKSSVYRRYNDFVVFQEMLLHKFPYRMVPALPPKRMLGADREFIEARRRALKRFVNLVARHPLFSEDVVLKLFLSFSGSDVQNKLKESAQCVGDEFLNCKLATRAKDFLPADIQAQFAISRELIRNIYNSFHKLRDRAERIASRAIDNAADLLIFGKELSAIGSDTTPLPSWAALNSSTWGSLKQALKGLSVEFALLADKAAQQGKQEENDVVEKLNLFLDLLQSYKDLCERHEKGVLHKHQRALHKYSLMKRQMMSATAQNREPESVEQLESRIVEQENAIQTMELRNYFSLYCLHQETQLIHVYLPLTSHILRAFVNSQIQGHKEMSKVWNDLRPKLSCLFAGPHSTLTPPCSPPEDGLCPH
UniProt O95295: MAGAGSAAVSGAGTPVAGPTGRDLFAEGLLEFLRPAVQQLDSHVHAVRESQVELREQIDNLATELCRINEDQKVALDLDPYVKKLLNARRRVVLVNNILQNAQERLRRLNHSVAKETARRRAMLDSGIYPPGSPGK

Columns and labels:
Assay in all cases: log2 fold change, soluble protein after heating vs DMSO (PISA); higher = thermal stabilisation; K562 lysate, 10 uM; active = over 0.2 and 3.5 SD of the protein, either way, in both replicates (recomputed)
ibrutinib = compound: C=CC(=O)N1CCC[C@@H](n2nc(-c3ccc(Oc4ccccc4)cc3)c3c(N)ncnc32)C1 [ibrutinib]
Outline: (§1)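 The values are log-two fold changes in thermal stability compared with solvent controls and come from duplicates. They were obtained by TMTpro 16plex LC-MS/MS, with channel sums equalised, on the supernatant after 21,000xg for 90 min. That supernatant came from crude K562 extract at 1 mg/mL protein treated with 10 μM compound for 30 min, heated for 3 min across 48°C-58°C, pooled and brought to 0.5% NP-40 at 4°C.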

[1] = compound: CC(=O)c1cnc2ccc(-c3cc(Cl)c(O)c(Cl)c3)nc2c1N[C@H]1CC[C@H](CN(C)C)CC1
Outline: as §1

ralimetinib = compound: CC(C)(C)Cn1c(N)nc2ccc(-c3[nH]c(C(C)(C)C)nc3-c3ccc(F)cc3)nc21 [ralimetinib]
Outline: as §1

[2] = compound: CC(C)(O)CC(=O)NCCn1ccc2ncnc(Nc3ccc(Oc4cccc(C(F)(F)F)c4)c(Cl)c3)c21
Outline: as §1

[3] = compound: CC(C)C1=C2N=C(C=C(N2N=C1)NCC3=CC=CC=C3)NCCCCCCN
Outline: as §1

[4] = compound: CC1=C(C(CC(=O)N1)C2=CC=C(C=C2)C(F)(F)F)C(=O)NC3=C(C=C4C(=C3)C=NN4)F
Outline: as §1

[5] = compound: CC1=C(C2=C(C=C1)C(=O)C3=CC=CC=C3N2CCCN)C
Outline: as §1

[6] = compound: CC1=C(C=C(C=C1)NC(=O)C2=CC(=CC=C2)C(C)(C)C#N)NC3=CC4=C(C=C3)N=CN(C4=O)C
Outline: as §1

[7] = compound: CC1=C(C=C(C=C1)NC(=O)C2=CC(=CC=C2)N(C)C)NC(=O)C3=CC=C(C=C3)O
Outline: as §1

[8] = compound: CC1=CC=C(C=C1)SC2=C3C=C(SC3=CN=C2)C(=O)N
Outline: as §1

vemurafenib = compound: CCCS(=O)(=O)Nc1ccc(F)c(C(=O)c2c[nH]c3ncc(-c4ccc(Cl)cc4)cc23)c1F [vemurafenib]
Outline: as §1

[9] = compound: CCCS(=O)(=O)Nc1ccc(F)c(C(=O)c2c[nH]c3ncc(Cl)cc23)c1F
Outline: as §1

barasertib = compound: CCN(CCCOc1ccc2c(Nc3cc(CC(=O)Nc4cccc(F)c4)[nH]n3)ncnc2c1)CCOP(=O)(O)O [barasertib]
Outline: as §1

[10] = compound: CC[C@@H]1C(=O)N(C)c2cnc(Nc3ccc(C(=O)NC4CCN(C)CC4)cc3OC)nc2N1C1CCCC1
Outline: as §1

volasertib = compound: CC[C@@H]1C(=O)N(C)c2cnc(Nc3ccc(C(=O)N[C@H]4CC[C@H](N5CCN(CC6CC6)CC5)CC4)cc3OC)nc2N1C(C)C [volasertib]
Outline: as §1

[11] = compound: CCn1c(C(=O)N(C2CC2)C2CC2)cc2c3c(ncn3C)c(Nc3cc(C)n(C)n3)nc21
Outline: as §1

[12] = compound: CCn1cc(-c2ccnc3[nH]c(-c4cccc(CN(C)C)c4)cc23)c(-c2ccc(NC(=O)N(C)C)cc2)n1
Outline: as §1

[13] = compound: CN1CCC(CNc2ccc3ncc(-c4cccc(OC(F)(F)F)c4)n3n2)CC1
Outline: as §1

saracatinib = compound: CN1CCN(CCOc2cc(OC3CCOCC3)c3c(Nc4c(Cl)ccc5c4OCO5)ncnc3c2)CC1 [saracatinib]
Outline: as §1

sotrastaurin = compound: CN1CCN(c2nc(C3=C(c4c[nH]c5ccccc45)C(=O)NC3=O)c3ccccc3n2)CC1 [sotrastaurin]
Outline: as §1

Measured: log2 fold change

SNX17 (UniProt Q15036)
inactive: ibrutinib -0.05 | [1] -0.003 | ralimetinib -0.006 | [2] -0.057 | [3] -0.027 | [4] -0.044 | [5] -0.064 | [6] 0.008 | [7] -0.02 | [8] -0.001 | vemurafenib -0.015 | [9] 0.083 | barasertib 0.007 | [10] 0 | volasertib -0.008 | [11] 0 | [12] 0.01 | [13] -0.061 | saracatinib 0.014 | sotrastaurin 0.004

SNRPD1 (UniProt P62314)
inactive: ibrutinib -0.003 | [1] -0.017 | ralimetinib 0.021 | [2] -0.071 | [3] 0.017 | [4] 0.028 | [5] -0.008 | [6] 0.009 | [7] -0.066 | [8] 0.005 | vemurafenib -0.011 | [9] 0.005 | barasertib -0.012 | [10] 0.079 | volasertib 0.022 | [11] 0.008 | [12] -0.097 | [13] 0.053 | saracatinib 0.01 | sotrastaurin -0.002

SNX5 (UniProt Q9Y5X3)
inactive: ibrutinib -0.021 | [1] 0.013 | ralimetinib -0.012 | [2] 0.174 | [3] 0 | [4] -0.001 | [5] 0.032 | [6] -0.032 | [7] 0.018 | [8] 0.012 | vemurafenib 0.054 | [9] 0.001 | barasertib -0.015 | [10] -0.037 | volasertib -0.033 | [11] -0.004 | [12] 0.092 | [13] -0.06 | saracatinib 0.006 | sotrastaurin 0.037

SNRPC (UniProt Q5TAL2)
inactive: ibrutinib 0.101 | [1] -0.076 | ralimetinib -0.067 | [2] -0.069 | [3] -0.012 | [4] 0.016 | [5] -0.05 | [6] 0.024 | [7] 0.013 | [8] -0.075 | vemurafenib -0.027 | [9] 0.003 | barasertib -0.107 | [10] 0.255 | volasertib 0.066 | [11] -0.021 | [12] -0.262 | [13] 0.005 | saracatinib 0.063 | sotrastaurin -0.047

SMARCA5 (UniProt O60264)
inactive: ibrutinib 0.002 | [1] 0.019 | ralimetinib 0.038 | [2] 0.003 | [3] -0.036 | [4] 0.017 | [5] -0.113 | [6] -0.057 | [7] 0.03 | [8] 0.013 | vemurafenib -0.008 | [9] -0.011 | barasertib 0.017 | [10] -0.037 | volasertib -0.015 | [11] 0.019 | [12] 0.024 | [13] -0.025 | saracatinib -0.002 | sotrastaurin 0.034

SMCR8 (UniProt Q8TEV9)
inactive: ibrutinib 0.067 | [1] 0.044 | ralimetinib -0.027 | [2] 0.017 | [3] -0.124 | [4] 0 | [5] 0.022 | [6] 0 | [7] 0.006 | [8] 0 | vemurafenib -0.012 | [9] 0.077 | barasertib 0.021 | [10] -0.004 | volasertib 0.026 | [11] -0.001 | [12] -0.068 | [13] 0.021 | saracatinib -0.018 | sotrastaurin 0.005

SMARCAL1 (UniProt Q9NZC9)
inactive: ibrutinib 0.071 | [1] -0.147 | ralimetinib 0.038 | [2] -0.023 | [3] -0.032 | [4] 0.015 | [5] -0.151 | [6] -0.044 | [7] -0.022 | [8] -0.191 | vemurafenib -0.011 | [9] 0.043 | barasertib 0.152 | [10] 0.102 | volasertib -0.006 | [11] 0.006 | [12] 0.087 | [13] -0.071 | saracatinib 0.013 | sotrastaurin 0.041

SMS (UniProt P52788)
inactive: ibrutinib -0.008 | [1] 0.008 | ralimetinib 0.002 | [2] 0.002 | [3] 0.009 | [4] -0.033 | [5] 0.022 | [6] 0.014 | [7] 0.001 | [8] -0.005 | vemurafenib -0.023 | [9] -0.01 | barasertib -0.034 | [10] -0.016 | volasertib 0.022 | [11] 0.029 | [12] 0.057 | [13] -0.005 | saracatinib -0.004 | sotrastaurin -0.006

SORBS1 isoform 8 (UniProt Q9BX66)
inactive: ibrutinib 0.04 | [1] -0.036 | ralimetinib -0.007 | [2] -0.034 | [3] -0.004 | [4] 0.015 | [5] -0.011 | [6] 0.028 | [7] -0.009 | [8] -0.006 | vemurafenib -0.036 | [9] 0.031 | barasertib -0.015 | [10] 0.037 | volasertib -0.015 | [11] 0.021 | [12] 0.016 | [13] -0.009 | saracatinib 0.021 | sotrastaurin -0.003

SNTB2 (UniProt Q13425)
inactive: ibrutinib 0.004 | [1] -0.017 | ralimetinib 0.011 | [2] -0.05 | [3] -0.122 | [4] 0.052 | [5] -0.074 | [6] -0.113 | [7] 0 | [8] 0.033 | vemurafenib 0.018 | [9] 0.02 | barasertib -0.036 | [10] 0.022 | volasertib -0.068 | [11] -0.013 | [12] 0.016 | [13] 0.011 | saracatinib 0.028 | sotrastaurin 0.074

SMARCAD1 isoform 2 (UniProt Q9H4L7)
inactive: ibrutinib 0.006 | [1] -0.021 | ralimetinib 0.022 | [2] -0.016 | [3] 0.007 | [4] 0.008 | [5] 0.012 | [6] 0.021 | [7] 0.014 | [8] -0.022 | vemurafenib 0.014 | [9] 0.034 | barasertib 0.021 | [10] -0.039 | volasertib -0.048 | [11] 0.017 | [12] -0.005 | [13] -0.057 | saracatinib 0.008 | sotrastaurin 0.002

SOD2 (UniProt P04179)
inactive: ibrutinib 0.045 | [1] -0.03 | ralimetinib 0.009 | [2] -0.047 | [3] -0.004 | [4] -0.027 | [5] -0.015 | [6] -0.046 | [7] -0.029 | [8] -0.021 | vemurafenib 0.039 | [9] -0.018 | barasertib -0.013 | [10] 0.037 | volasertib 0.045 | [11] 0.007 | [12] -0.085 | [13] 0.061 | saracatinib -0.031 | sotrastaurin -0.028

SNTA1 (UniProt Q13424)
inactive: ibrutinib 0.064 | [1] 0.125 | ralimetinib -0.038 | [2] -0.026 | [3] -0.018 | [4] -0.012 | [5] 0 | [6] 0.033 | [7] -0.002 | [8] -0.033 | vemurafenib 0.04 | [9] 0.007 | barasertib 0.045 | [10] -0.058 | volasertib -0.045 | [11] 0.042 | [12] -0.027 | [13] 0.03 | saracatinib 0.027 | sotrastaurin 0.034

SNRPG (UniProt P62308)
inactive: ibrutinib -0.003 | [1] -0.033 | ralimetinib -0.005 | [2] -0.053 | [3] 0.003 | [4] 0.023 | [5] -0.015 | [6] -0.022 | [7] -0.009 | [8] -0.019 | vemurafenib 0.036 | [9] 0.011 | barasertib 0.032 | [10] 0.061 | volasertib 0.037 | [11] -0.029 | [12] -0.203 | [13] 0.11 | saracatinib 0.023 | sotrastaurin 0.008

2 records drawn at random from the list so far, as already listed:
SMARCAL1 (UniProt Q9NZC9)
inactive: ibrutinib 0.071 | [1] -0.147 | ralimetinib 0.038 | [2] -0.023 | [3] -0.032 | [4] 0.015 | [5] -0.151 | [6] -0.044 | [7] -0.022 | [8] -0.191 | vemurafenib -0.011 | [9] 0.043 | barasertib 0.152 | [10] 0.102 | volasertib -0.006 | [11] 0.006 | [12] 0.087 | [13] -0.071 | saracatinib 0.013 | sotrastaurin 0.041

SMARCAD1 isoform 2 (UniProt Q9H4L7)
inactive: ibrutinib 0.006 | [1] -0.021 | ralimetinib 0.022 | [2] -0.016 | [3] 0.007 | [4] 0.008 | [5] 0.012 | [6] 0.021 | [7] 0.014 | [8] -0.022 | vemurafenib 0.014 | [9] 0.034 | barasertib 0.021 | [10] -0.039 | volasertib -0.048 | [11] 0.017 | [12] -0.005 | [13] -0.057 | saracatinib 0.008 | sotrastaurin 0.002

Next entries.

SNX8 (UniProt Q9Y5X2)
inactive: ibrutinib -0.022 | [1] -0.004 | ralimetinib 0.008 | [2] -0.055 | [3] -0.028 | [4] 0.029 | [5] -0.041 | [6] -0.009 | [7] -0.003 | [8] -0.011 | vemurafenib 0.019 | [9] -0.002 | barasertib -0.04 | [10] 0.033 | volasertib 0.013 | [11] -0.019 | [12] 0.029 | [13] -0.017 | saracatinib -0.027 | sotrastaurin 0.018

SNAPIN (UniProt O95295)
inactive: ibrutinib 0.093 | [1] -0.02 | ralimetinib 0.017 | [2] -0.053 | [3] 0.03 | [4] -0.007 | [5] -0.03 | [6] 0.069 | [7] 0.032 | [8] 0.004 | vemurafenib 0.044 | [9] 0 | barasertib 0.104 | [10] 0.036 | volasertib 0.035 | [11] -0.012 | [12] 0.015 | [13] 0.036 | saracatinib 0.007 | sotrastaurin 0.003
